Measured values reported in patent publication US9867372B2, “Tetrazolinone compound and use of same” (SUMITOMO CHEMICAL COMPANY, LIMITED, priority 2013, dated 2018).
Some entries share one result that the patent states for a list of compounds.

Key:
[1] = tested on: wheat leaf blotch fungus (Septoria tritici); assay: wheat leaf blotch control test, foliar spray 4 days before inoculation; format: in vivo; settings: 500 ppm, sprayed 4 days before inoculation (Test Example 11)
[2] = tested on: cucumber corynespora leaf spot fungus (Corynespora cassicola); assay: cucumber corynespora leaf spot control test, foliar spray before inoculation; format: in vivo; settings: 200 ppm, sprayed one day before inoculation (Test Example 18)
[3] = tested on: wheat leaf blotch fungus (Septoria tritici); assay: wheat leaf blotch control test, foliar spray after inoculation; format: in vivo; settings: 200 ppm, sprayed 3 days after inoculation (Test Example 13)
[4] = tested on: cucumber anthracnose fungus (Colletotrichum lagenarium); assay: cucumber anthracnose control test, foliar spray before inoculation; format: in vivo; settings: 200 ppm, sprayed one day before inoculation (Test Example 19)
[5] = tested on: barley net blotch fungus (Pyrenophora teres); assay: barley net blotch control test, foliar spray before inoculation; format: in vivo
[6] = tested on: soybean rust fungus (Phakopsora pachyrhizi); assay: soybean rust control test, foliar spray before inoculation; format: in vivo; settings: 200 ppm, sprayed 2 days before inoculation (Test Example 15)
[7] = tested on: barley scald fungus (Rhynchosporium secalis); assay: barley scald control test, foliar spray before inoculation; format: in vivo; settings: 200 ppm, sprayed 2 days before inoculation (Test Example 16)
[8] = tested on: kidney bean stem rot fungus (Sclerotinia sclerotiorum); assay: kidney bean stem rot control test, foliar spray before inoculation
[9] = 500 ppm, sprayed 2 days before inoculation (Test Example 7)
[10] = 500 ppm, kidney bean (Test Example 9)
[11] = 200 ppm, kidney bean (Test Example 10)

Measured: area of lesion spots on the treated plant relative to that on an untreated plant

Cc1cccc(-n2nnn(C)c2=O)c1COc1cccc(-c2ccc(OC(F)(F)F)cc2)n1 [compound 11]
≤ 30%: [1] | [2] | [3] | [4] | [5]; [9] | [6] | [7]

COc1ccccc1-c1cccc(OCc2c(C)cccc2-n2nnn(C)c2=O)n1 [compound 19]
≤ 30%: [2] | [3] | [4] | [6]

COc1ccc(-c2cccc(OCc3c(C)cccc3-n3nnn(C)c3=O)c2)cc1 [compound 39]
≤ 30%: [1] | [3] | [4] | [6] | [7] | [8]; [10]

Cc1cccc(-n2nnn(C)c2=O)c1COc1cccc(-c2ccc(F)cc2)c1 [compound 58]
≤ 30%: [3] | [5]; 200 ppm, sprayed 2 days before inoculation (Test Example 8) | [6] | [8]; [11]

CCc1cccc(-n2nnn(C)c2=O)c1COc1cccc(-c2ccc(F)cc2)n1 [compound 65]
≤ 30%: [3] | [4] | [6] | [8]; [10]

COc1cccc(-n2nnn(C)c2=O)c1COc1cccc(-c2ccc(F)cc2)n1 [compound 70]
≤ 30%: [1] | [2] | [3] | [4] | [6] | [7] | [8]; [10]

Cc1cccc(-n2nnn(C)c2=O)c1COc1cccc(-c2ccc3c(c2)OCO3)n1 [compound 74]
≤ 30%: [2] | [4] | [6] | [7] | [8]; [10]

COc1cccc(-c2ccnc(OCc3c(C)cccc3-n3nnn(C)c3=O)n2)c1 [compound 98]
≤ 30%: [1] | [2] | [3] | [4] | [6]

Cc1ccc(OCc2c(C)cccc2-n2nnn(C)c2=O)cc1-c1ccc(Cl)cc1 [compound 122]
≤ 30%: [1] | [3] | [4] | [5]; [9] | [6] | [7] | [8]; [10]

COc1ccccc1-c1cc(OCc2c(C)cccc2-n2nnn(C)c2=O)ccc1OC [compound 144]
≤ 30%: [5]; [9] | [6] | [7] | [8]; [10]

Cc1cccc(-n2nnn(C)c2=O)c1COc1cccc(-c2ccc3ncccc3c2)c1 [compound 157]
≤ 30%: [1] | [2] | [3] | [4] | [6] | [7]

COc1cc(F)ccc1-c1cccc(OCc2c(C)cccc2-n2nnn(C)c2=O)n1 [compound 169]
≤ 30%: [3] | [6] | [8]; [11]
